# The supplement of paper PMC12889115
# The list shows a part of the results. Values are raw readings; no control value is given beside them.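 Primary screen: polymyxin B was added at a level permeabilizing Salmonella outer membranes while sparing inner membranes. DMSO wells, both with and without polymyxin B, established maximum growth. Plate-to-plate variation meant each plate was ranked on its own, and the lowest-OD600 compounds were selected as hits.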
# Test system: Salmonella enterica serovar Typhimurium SL1344
# Test: bacterial growth OD600 after 18 h with compound and polymyxin B; higher = more bacterial growth (less inhibition)
# Conditions: 50 µM, Mueller-Hinton broth
Compound,bacterial growth OD600 (polymyxin B 1 µg/mL),bacterial growth OD600 (polymyxin B 0.75 µg/mL)
Cc1cccc(-c2cccc(NC(=O)C3CCCN3Cc3ccc(CO)o3)c2)c1 (stereo unspecified),0.263,
COc1ccc(CCNC(=O)CCC2(Cc3cccc4ccccc34)CCC(=O)N2)cc1OC (stereo unspecified),,0.846
COc1ccc(C(C)N(C)Cc2nc(-c3cc(C)c(OC)cc3C)oc2C)cc1 (stereo unspecified),,0.496
O=C(C1CC1)N1CCOc2c(cc(-c3csc4ccccc34)cc2OC2CCOC2)C1 (stereo unspecified),,0.658
O=C(c1cc(COc2ccc3c(c2)OCO3)[nH]n1)N1CCCC(O)C1 (stereo unspecified),0.979,
COc1ccc(N2C(=O)CN(C(=O)c3ccc(C#CC(C)(C)O)cc3)CC23CCCC3)cc1,,0.734
COc1ccccc1Oc1ncccc1CNC(=O)c1sc(C)nc1C,,0.788
CCCCN(C)C(=O)c1sc2ncnc(N3CCCCCCC3)c2c1C,,0.008
CCC(=O)N[C@@H]1c2ccccc2C2(CCN(C(=O)C3=C(C)OCCO3)CC2)[C@H]1OCc1cccnc1,,0.843
Cc1nccn1-c1ccc(NC(=O)C2CCCN2C(=O)C2(C)CC2)cc1 (stereo unspecified),1.02,
O=C(c1coc(COc2ccc3c(c2)OCO3)n1)N1CC[C@@H]2CCCC[C@H]2C1,0.007,
CC1(C)CC(NC(=O)c2cc(NS(C)(=O)=O)cc3ncn(CCc4ccccc4)c23)CCO1 (stereo unspecified),,0.865
CCOC(=O)C1(Cc2ccc(F)cc2F)CCCN(C(=O)c2ccc(C(C)=O)cc2)C1 (stereo unspecified),0.949,
CSCCCNC(=O)C1CCC(=O)N(CCc2ccc(Cl)cc2)C1 (stereo unspecified),0.866,
O=C(CC1(c2ccccc2Cl)CC(=O)N(C2CCCC2)C1=O)N1CCC(c2ccncc2)CC1 (stereo unspecified),,0.013
Cc1cc(C)n(-c2ccc(NC(=O)C3CCCCN3C(=O)c3cscn3)cc2)n1 (stereo unspecified),0.938,

Compound,bacterial growth OD600 (polymyxin B 1 µg/mL),bacterial growth OD600 (polymyxin B 0.75 µg/mL)
Cc1ncc2c(c1CNS(C)(=O)=O)CCN(C(=O)c1ccc3c(c1)c1ccccc1n3C)C2,,0.854
CCOc1cccc(CN2CCC3(CC2)c2ccccc2[C@@H](NC(=O)CC)[C@@H]3OCCOC)c1O,,0.872
CN(Cc1ccon1)C(=O)C1CC(Cc2ccc(F)cc2)=NO1 (stereo unspecified),,0.826
CCOC(=O)C1CCN(CC2(O)CCCN(CC3CCC3)C2=O)CC1 (stereo unspecified),1.01,
COc1ccc(CN2CCN(Cc3cnn(C)c3C)CC2CCO)cc1C (stereo unspecified),0.965,
CCC(=O)N1CCC2(CCCN(Cc3cccc(F)c3F)C2=O)C1 (stereo unspecified),0.936,
CCS(=O)(=O)Nc1cc(C(=O)N2CCN(CCOC)CC2)c2c(c1)nc(-c1ccccc1)n2C,,0.826
CC#CC(=O)NC1CC(=O)N(Cc2cccc3ccccc23)C1 (stereo unspecified),0.945,
COc1ccc2ccc(OCc3nc(C(=O)NC4CCCC4)co3)cc2c1,0.86,
CCn1nc(C)c(CNC(=O)C2(N(C)C)Cc3ccccc3C2)c1C,1.23,
CC(=O)N1CCCC(CCc2ccccc2C)C1 (stereo unspecified),,0.59
COc1ccc(C(=O)NCc2cccnc2Oc2ccc(C)nc2)cc1,,0.82
CC(NC(=O)c1ccccc1OC1CCN(S(C)(=O)=O)CC1)c1ccccc1 (stereo unspecified),0.931,
Cc1ccc(C(=O)N2CCCC(N3CCN(c4ccc(F)cc4)CC3)C2)c(C)c1 (stereo unspecified),0.788,
COc1ccc(CNC(=O)C2(N3C[C@@H](C)O[C@@H](C)C3)Cc3ccccc3C2)cc1,1.05,

# Three structures already listed, arranged by length of the SMILES, high to low:
Compound,bacterial growth OD600 (polymyxin B 1 µg/mL),bacterial growth OD600 (polymyxin B 0.75 µg/mL)
CCOc1cccc(CN2CCC3(CC2)c2ccccc2[C@@H](NC(=O)CC)[C@@H]3OCCOC)c1O,,0.872
CCS(=O)(=O)Nc1cc(C(=O)N2CCN(CCOC)CC2)c2c(c1)nc(-c1ccccc1)n2C,,0.826
COc1ccc(CN2CCN(Cc3cnn(C)c3C)CC2CCO)cc1C (stereo unspecified),0.965,
